# Results: PubChem BioAssay AID485353 (National Center for Advancing Translational Sciences (NCATS), 2010)
# In all, about 330,000 compounds went through this assay and about 610 (0.18%) were called active. Inconclusive results, whose numbers are uncertain, are shown with a selection of clear calls. Calls come from the whole dose curve. Potencies beside an inconclusive call are fits to weak or partial responses and may not hold up.
# Assay: qHTS of Yeast-based Assay for SARS-CoV PLP; note: nearly all actives have a fitted effect of over 55% in size
# Conditions: S. cerevisiae expressing SARS-CoV PLpro; Potency: growth rescue; series mostly up to 32.9 µM
# Potency is the fitted concentration of half-maximal effect.
row,SMILES,Potency
1,O=C(c1ccncc1)N1CCN(S(=O)(=O)c2ccccc2F)CC1,inactive
2,CCn1cc(CN2CCC(C(=O)Nc3cccc(-c4cccc(OC)c4)c3)CC2)c(C)n1,"inconclusive: 20 µM [activator, single point]"
3,Cc1cc2c(nn1)CCC/C2=N\O,"inconclusive: 3.16 µM [activator, single point]"
4,Cc1cc(NC(=O)CSc2nnnn2C)n(-c2ccccc2)n1,inactive
5,CC(CCc1ccccc1)NCC(O)c1ccc(O)c(C(N)=O)c1 (stereo not given),inactive
6,N/C(=N\OC(=O)CSc1ccccc1)c1ccncc1,"inconclusive: 1 µM [activator, partial curve]"
7,COc1ccc2c3n([n+]([O-])c2c1)CCN=C3c1ccc(Cl)cc1,"inconclusive: 12.6 µM [activator, single point]"
8,COc1ccccc1CNC(=O)CN1c2cccc3cccc(c23)S1(=O)=O,inactive
9,CC(C)NC(=O)COC(=O)/C=C/c1ccc(F)cc1,"inconclusive: 20 µM [activator, single point]"
10,CC1=C(C(=O)OCC2CCCO2)C(c2ccc(Cl)c(Cl)c2)NC(=O)N1 (stereo not given),inactive
11,Cc1cccc(Cn2c(NCC(C)O)nc3c2c(=O)n(C)c(=O)n3C)c1 (stereo not given),inactive
12,c1ccc(N2CCN(CCc3nnc4n3CCCCC4)CC2)cc1,"inconclusive: 20 µM [activator, single point]"
13,CCc1ccccc1NC(=O)Cn1nc(C)n2cccc2c1=O,"inconclusive: 14.1 µM [activator, single point]"
14,CC1Cc2ccccc2N1CC(=O)NCc1ccc2c(c1)OCO2 (stereo not given),"inconclusive: 10 µM [activator, partial curve]"
15,C[N+](C)(C)CC(=O)N/N=C/c1c2ccccc2cc2ccccc12,"inconclusive: 20 µM [activator, single point]"
16,O=C(N/N=C/C(Br)=C/c1ccccc1)c1cccs1,inactive
17,COc1cc(C)ccc1OCc1cc(C(=O)N2C[C@H]3CC[C@H]2C3)no1,"inconclusive: 2.51 µM [activator, full curve]"
18,O=C1C(Cl)=C(NCC2CCCO2)C(=O)N1CCc1ccccc1 (stereo not given),inactive
19,OCCC1CN(Cc2ccccc2O)CCN1CCCc1ccccc1 (stereo not given),"inconclusive: 2.51 µM [activator, single point]"
20,O=c1c([N+](=O)[O-])cc(C(F)(F)F)cn1Cc1c(Cl)cccc1Cl,inactive
21,N#CCCN(C(=O)COC(=O)c1ccc2c(=O)n3c(nc2c1)CCC3)c1ccc(F)cc1,inactive
22,CCOC(=O)/C(C#N)=C/Nc1cc(OC)ccc1OC,"inconclusive: 4.47 µM [activator, single point]"
23,CCC(=O)NS(=O)(=O)c1ccc(N=NN2CCCCC2)cc1,"inconclusive: 5.62 µM [activator, partial curve]"
24,Cc1cc(NC(=O)c2ccc(N(C)S(=O)(=O)c3ccccc3)cc2)no1,"inconclusive: 4.47 µM [activator, single point]"
25,COc1ccc(NC(=O)CCNS(=O)(=O)c2cccc(C(C)=O)c2)cc1S(N)(=O)=O,inactive

# 2 of the compounds above, bar-delimited:
row | SMILES | Potency
16 | O=C(N/N=C/C(Br)=C/c1ccccc1)c1cccs1 | inactive
17 | COc1cc(C)ccc1OCc1cc(C(=O)N2C[C@H]3CC[C@H]2C3)no1 | inconclusive: 2.51 µM [activator, full curve]

# (cont.)

row,SMILES,Potency
1,COc1ccc(OC)c(N2Cc3cc(C)c(C)cc3C2)c1,"inconclusive: 17.8 µM [activator, single point]"
2,Brc1ccc(-c2nc3ccccc3s2)s1,"inconclusive: 3.98 µM [activator, full curve]"
3,O=C(COC(=O)c1ccc(Cl)nc1)NC1CCCc2ccccc21 (stereo not given),inactive
4,Cc1ccccc1OC1C(=O)N(CC2CCCO2)C1c1ccc2c(c1)OCO2 (stereo not given),inactive
5,CCOC(=O)/C(C)=N/Nc1nc(-c2ccc(NC(C)=O)cc2)cs1,inactive
6,CC(NC(=O)c1cccnc1)c1ccc2c(c1)OCO2 (stereo not given),inactive
7,CCOC(=O)c1c(NC(=O)CN2CCOCC2)sc2c1CCCC2,"inconclusive: 11.2 µM [activator, single point]"
8,Cc1cc(C)c(C(N)=O)c(SCC(=O)c2cc(C)n(-c3cc(C)on3)c2C)n1,inactive
9,COc1ccc(C(=O)Nc2ccc(C3(C#N)CCCC3)cc2)cc1,inactive
10,O=c1oc2cc(OCc3nn[nH]n3)ccc2c2c1CCCC2,"inconclusive: 2.82 µM [activator, partial curve]"
11,C=CCc1ccc(OCCn2cncn2)c(OC)c1,"inconclusive: 3.55 µM [activator, single point]"
12,O=C(CNC(=O)c1ccco1)OCC(=O)c1ccccc1,"inconclusive: 1.26 µM [activator, partial curve]"
13,Cc1ccc(-n2nc(C)c3c2OC(N)=C(C#N)C3c2ccc(F)cc2)cc1 (stereo not given),inactive
14,O=C(N/N=C/c1cc([N+](=O)[O-])ccc1O)NC12CC3CC(CC(C3)C1)C2,"inconclusive: 0.447 µM [activator, partial curve, poor fit]"
15,O=C(NC1CCCCC1)C1CC(=O)N(c2cccc([N+](=O)[O-])c2)C1 (stereo not given),inactive
16,Cc1ccc(S(=O)(=O)N2CCCCC2)cc1NC(=O)CSc1ccc2c(c1)OCCO2,"inconclusive: 10 µM [activator, single point]"
17,O=c1cc(-c2ccc(O)cc2)oc2cc(O)c([C@@H]3O[C@H](CO)[C@@H](O)[C@H](O)[C@H]3O)c(O)c12,inactive
18,Cc1cc(CNC(=O)c2cccc(OC3CCN(S(=O)(=O)N(C)C)CC3)c2)on1,"inconclusive: 3.98 µM [activator, single point]"
19,CC(C)NC(=S)N/N=C1\CCCCc2ccccc21,"inconclusive: 1.12 µM [activator, partial curve]"
20,Cc1ccnc(NS(=O)(=O)c2ccc(NC(=O)CCOc3ccccc3)cc2)n1,inactive
21,CCSc1nnc(NC(=O)C(Cc2ccccc2)n2cccc2)s1 (stereo not given),"inconclusive: 22.4 µM [activator, single point]"
22,COC(=O)N(NC(=O)C(O)(CCC(C)C)CCC(C)C)c1ccccc1,"inconclusive: 0.316 µM [activator, partial curve, poor fit]"
23,CCOC(=O)c1csc(COc2ccccc2Cl)n1,inactive
24,COc1ccc(C2=NNC(=O)CC2)cc1,"inconclusive: 14.1 µM [activator, single point]"
25,COc1ccc(CCNC(=O)Cn2nc([N+](=O)[O-])c(Br)c2C)cc1OC,"inconclusive: 12.6 µM [activator, single point]"

row,SMILES,Potency
1,Cc1ccc(NC(=O)Cn2c(=O)cnc3ccccc32)cc1S(=O)(=O)N(C)C,"inconclusive: 3.16 µM [activator, partial curve]"
2,CC(=O)c1cccc(N=C2NC(=O)C(CO)(CO)S2)c1,"inconclusive: 14.1 µM [activator, single point]"
3,CC(=O)NC(CC(=O)Nc1ccc(S(=O)(=O)NC2=NCCCCC2)cc1)c1ccccc1 (stereo not given),"inconclusive: 15.8 µM [activator, single point]"
4,C=C(C)C1CC=C(C)/C(=N\NC(=S)Nc2ccc(C)cc2)C1 (stereo not given),"inconclusive: 20 µM [activator, single point]"
5,CC(C)(O)C#Cc1ccc(C(=O)NCc2ccccc2F)cc1,"inconclusive: 20 µM [activator, single point]"
6,CCc1nnc(NC(=O)c2ccc(S(=O)(=O)N3CCCc4ccccc43)cc2)o1,active: 20 µM
7,O=C(Cn1[nH]c(=O)c2ccccc2c1=O)NCCN1C(=O)S/C(=C\c2ccccc2)C1=O,inactive
8,CC(=O)N1CCC(N(CCN2CCOCC2)C(=S)Nc2c(C)cccc2C)CC1,inactive
9,COc1ccc(CNC(=O)C[C@H]2C[C@H](C(=O)N3CCOCC3)[C@@]3(CCC4CCCC4)c4[nH]c5cc(CCC(=O)N(C)C)ccc5c4CCN3C2=O)cc1OC,"inconclusive: 20 µM [activator, single point]"
10,Cn1cccc1/C=C1\Cc2ccccc2C1=O,inactive
11,CN(C)C(=O)CCC(=O)N1CCCC(C(=O)c2ccc(C(F)(F)F)cc2)C1 (stereo not given),"inconclusive: 4.47 µM [activator, single point]"
12,Cc1ccc(C)c(NC(=S)NNC(=O)c2cc3c(s2)CCC(C)C3)c1 (stereo not given),"inconclusive: 5.62 µM [activator, partial curve]"
13,O=C(CNC(=O)c1ccccc1C(=O)O)c1ccccc1,inactive
14,C=CCN(c1ccccc1)S(=O)(=O)c1cccc(C(=O)NCC(c2ccccc2OC)N2CCCC2)c1 (stereo not given),inactive
15,CCC1CN(C(=O)Nc2cccc(C)c2)c2cc(C)ccc2O1 (stereo not given),inactive
16,Cc1ccc(S(=O)(=O)N2CCOCC2)cc1NC(=O)CN1CCC(Cc2ccccc2)CC1,inactive
17,CCC1CCCCN1S(=O)(=O)c1ccc(C(=O)Nc2nnc(C3=COCCO3)o2)cc1 (stereo not given),"inconclusive: 3.98 µM [activator, single point]"
18,CC(Sc1n[nH]c(-c2ccccc2F)n1)C(=O)Nc1ccc(S(N)(=O)=O)cc1 (stereo not given),"inconclusive: 20 µM [activator, single point]"
19,Cc1cc(N)ccc1NC(=O)CN1CCCC1,inactive
20,COc1ccc(C2=Nn3c(nnc3-c3ccccc3F)SC2)cc1OC1CCOC1 (stereo not given),inactive
21,COc1ccc2[nH]c3c(c2c1)CCN1C(=O)N([C@@H](C)C(=O)NCCc2ccc(OC)c(OC)c2)C(=O)[C@]31C,inactive
22,COCc1nnc(NC(=O)c2ccc(S(=O)(=O)N(CC(C)C)CC(C)C)cc2)o1,"inconclusive: 10 µM [activator, single point]"
23,Cc1ccc(CNC(=O)CCn2ccc3cc(S(=O)(=O)N4CCCC4)ccc32)cc1,"inconclusive: 14.1 µM [activator, single point]"
24,CCN1C(=O)CC(NCc2ccc(S(N)(=O)=O)cc2)C1=O (stereo not given),inactive
25,Cc1ccc(S(=O)(=O)N(C)CCCC(=O)Nc2ccncc2)cc1,inactive

# Structures shown so far that contain a CF3 group (2):
row,SMILES,Potency
20,O=c1c([N+](=O)[O-])cc(C(F)(F)F)cn1Cc1c(Cl)cccc1Cl,inactive
11,CN(C)C(=O)CCC(=O)N1CCCC(C(=O)c2ccc(C(F)(F)F)cc2)C1 (stereo not given),"inconclusive: 4.47 µM [activator, single point]"
